{"source": "patent US7407934B2", "about": "“Methods for regulating postprandial blood glucose” (Amylin Pharmaceuticals, Inc., priority 1993, dated 2008)", "system": "glucose absorption from the small intestine", "assay": "Glucose absorption from duodenum / perfused small bowel in anesthetized rats", "format": "in vivo, rat", "conditions": "perfused exteriorized small bowel segment", "from_the_text": "Because the studies involved anesthetized rather than conscious rats, they are not considered in analyzing gastric motility, e.g., rate of emptying of stomach contents into the duodenum. However, the studies indicate that absorption of glucose from the duodenum into the blood was not delayed by amylin. […] In anesthetized rats, a segment of small bowel, still connected to the animal via its blood supply, was exteriorized and cannulae inserted so that the small bowel could be perfused with glucosed solutions of controlled composition. The animals were cannulated also via an artery (for blood sampling) and via a vein (for infusion or amylin, insulin and glucose). The lumen was perfused with a tritium-labelled glucose solution. The passage of glucose from the lumen of the gut into the rat was measured by the appearance of the tritium label in the plasma. The supposition that such appearance of tritium in the plasma was indeed measuring glucose uptake from the gut was tested by administration of the glucose transport blocker, phloridzin. […] To ensure that the glucose gradient between the gut lumen and plasma remained constant, during amylin infusions, plasma glucose was “clamped” by an infusion of glucose that was varied in response to changes in plasma glucose.", "note": "At least one compound was matched to its structure with a doubt left."}
{"smiles": "O=C(CCc1ccc(O)cc1)c1c(O)cc(O)cc1O[C@@H]1O[C@H](CO)[C@@H](O)[C@H](O)[C@H]1O", "note": "[Phloridzin]", "values": [{"measurement": "Rate of transit of labelled glucose from small bowel lumen into plasma", "value": "largely prevented"}]}
